In patent publication US4473555 (dated 1984) one finds crude mass and isolated mass data, which are given here for 1 substance.

A short description of the series: general procedure: Boc solid-phase peptide synthesis; Boc-Gly-O-Resin from chloromethylpolystyrene-1%-divinylbenzene resin (1 mmol Cl/g resin). As to conditions: whole synthesis, scale 1.0 mmol.

For the substance Ac-QDPYVKEAG-OH, the crude mass (HF salt) is listed as 0.725 g. Also, the isolated mass (acetic acid salt) was found to be 260 mg.
